These are yes or no findings as the source states them, for the method shown. Binding seen in cells or lysates may run through a third protein. Here binding means that the protein was enriched with, or labelled near, the bait; the list need not be complete. Where a sequence is shown, tags or fusion partners need not be part of it.
Molecular target: Fibronectin (FN)
Assay: IP-mass spectrometry; IP and WB of HEK293T Tinagl1-HA lysate with 5 µg of FN added (FIG. 15B)

B1: C-terminal HA tagged Tinagl1 (Tinagl1-HA) (other)
chain: AQQGRGRRELAPGLHLRGIRDAGGRYCQEQDLCCRGRADDCALPYLGAICYCDLFCNRTVSDCCPDFWDFCLGVPPPFPPIQGCMHGGRIYPVLGTYWDNCNRCTCQENRQWQCDQEPCLVDPDMIKAINQGNYGWQAGNHSAFWGMTLDEGIRYRLGTIRPSSSVMNMHEIYTVLNPGEVLPTAFEASEKWPNLIHEPLDQGNCAGSWAFSTAAVASDRVSIHSLGHMTPVLSPQNLLSCDTHQQQGCRGGRLDGAWWFLRRRGVVSDHCYPFSGRERDEAGPAPPCMMHSRAMGRGKRQATAHCPNSYVNNNDIYQVTPVYRLGSNDKEIMKELMENGPVQALMEVHEDFFLYKGGIYSHTPVSLGRPERYRRHGTHSVKITGWGEETLPDGRTLKYWTAANSWGPAWGERGHFRIVRGVNECDIESFVLGVWGRVGMEDMGHH
notes: Expressed in LM2 or HEK293T cells; assayed in cell lysate mixed with concentrated culture media; also called Tiangl1-HA; not shown: human influenza hemagglutinin (HA) tag fused to the C-terminal
- binding: binds

Reference: patent US20210379147A1, “METHOD AND SYSTEM FOR TREATING CANCER UTILIZING TINAGL1” (The Trustees of Princeton University, priority 2018, published 2021)
